Test results from article PMC7819943, “Rice protein-binding microarrays: a tool to detect cis-acting elements near promoter regions in rice”.
The other results are listed elsewhere or left out.

By UniProt entry, the sequences of proteins in these tests, tags left out.
UniProt Q0JBA9, entry or part of it: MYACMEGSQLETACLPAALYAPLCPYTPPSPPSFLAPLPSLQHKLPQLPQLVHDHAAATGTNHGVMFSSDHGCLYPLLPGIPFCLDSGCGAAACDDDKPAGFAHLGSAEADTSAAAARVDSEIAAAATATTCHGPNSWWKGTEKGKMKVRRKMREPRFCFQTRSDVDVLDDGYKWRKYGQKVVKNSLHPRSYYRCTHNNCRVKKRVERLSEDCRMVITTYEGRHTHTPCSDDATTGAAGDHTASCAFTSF

What follows are sequences tested against OsWRKY34 (Oryza sativa, UniProt Q0JBA9 1-250) (assay: protein-binding microarray (RPBM); PBS, 2% BSA, 51.3 ng/ul salmon testes DNA, 50 uM zinc acetate, 200 nM TF, 25 C, 1 h; high values mean tight binding). Conditions: protein: recombinant; tags: N-terminal polyhistidine and DsRed monomer fusion (pET32a); label: CyDye5-dUTP incorporated in the synthesized complementary strand; 3' TTTTT single-stranded linker to array surface; dsDNA, one strand shown.
Procedure, shortened: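 For the binding signal, per-feature fluorescence intensity was read in arbitrary units on an Axon 4000B scanner. Before scanning, a 2% BSA-blocked custom Agilent array made double-stranded with Cy5-dUTP was washed after 1 h at 25 °C with 200 nM protein and 50 µM zinc acetate. The proteins were Ni–NTA-purified transcription factors with N-terminal polyhistidine and DsRed fusions, expressed in E. coli BL21-CodonPlus.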
In the case of “CCTTATCTCTTTCAGGTGGCACGCAGGGGAGGGAGGGAGCCGGAGTCACCTAGTGCAG”, the binding signal is reported as 10200 fluorescence intensity (a.u.).
“ACAAGCTTTTTAAGGCCATTTATAACCCTATTATTACACACGGAGTCACCTAGTGCAG” was tested, and the binding signal was 8690 fluorescence intensity (a.u.).
In the case of “CTATTATTCGATTCTCTCCTGGGCCAAATTGACCTACTCTCGGAGTCACCTAGTGCAG”, the binding signal is reported as 8220 fluorescence intensity (a.u.).
“GCATCCATTGCCCAGTTTGGTAGTAATCCTGGATTCTTTTCGGAGTCACCTAGTGCAG” was tested, and the binding signal was 9300 fluorescence intensity (a.u.).
With “GATAGTGGTCTTGTTTACTTTATAGGAGCTTTCAACCAAACGGAGTCACCTAGTGCAG” the binding signal was 11000 fluorescence intensity (a.u.).
For “GTTTTTCTCTCTCATTTCTATATGTGTTTGCAGGGGCGGACGGAGTCACCTAGTGCAG”, the binding signal was 11800 fluorescence intensity (a.u.).
In the case of “GCCGCGCTCCTTCCTCGCCAGCCGCCAGCCGCCTCACCCCCGGAGTCACCTAGTGCAG”, the binding signal is reported as 8280 fluorescence intensity (a.u.).
“TTTAGCAGCCTGTTTATAGATTCTTTTTTAAAAAGAATACCGGAGTCACCTAGTGCAG” was tested, and the binding signal was 8990 fluorescence intensity (a.u.).
With “CTTGTTCTCTCCAGGTTCCAGTGCTAATAATTCCCATACTCGGAGTCACCTAGTGCAG” the binding signal was 9660 fluorescence intensity (a.u.).
With “TTTTCGCTGGTTTTTTTCGCCTTTTTTTTCTGGATCGGACCGGAGTCACCTAGTGCAG” the binding signal was 9150 fluorescence intensity (a.u.).
“TCCGTGCTGCAGTTTTCCTTCTCTCTCTTCTCTTCTCTATCGGAGTCACCTAGTGCAG” was tested, and the binding signal was 8620 fluorescence intensity (a.u.).
For “AGGATAAGGGTATTTTGGTCATCTCAACAAGAAAAACATTCGGAGTCACCTAGTGCAG”, the binding signal was 9000 fluorescence intensity (a.u.).
With “TCCGATCTTACTCCCCACCCTGTCGCTGTGTGCCTCTCTCCGGAGTCACCTAGTGCAG” the binding signal was 9340 fluorescence intensity (a.u.).
For “CCGTGGCATATAATGTCTATTTTTACTCCCTATTGTTTTTCGGAGTCACCTAGTGCAG”, the binding signal was 8240 fluorescence intensity (a.u.).
With “TGTCAGAATCCTGTGTTTTTCCTATTACTCTGTTTTTTCACGGAGTCACCTAGTGCAG” the binding signal was 11400 fluorescence intensity (a.u.).
In the case of “ATCTTCAGGCTAGACCGCCACCCATGTCCCTGGTAAAACACGGAGTCACCTAGTGCAG”, the binding signal is reported as 8110 fluorescence intensity (a.u.).
For “TAGTTTTAATTGTTTTTCCGGATCAAATTGCCACGTAAGCCGGAGTCACCTAGTGCAG”, the binding signal was 8020 fluorescence intensity (a.u.).
In the case of “CCCGTTGTCACCAACCTCCACGCAGGATCCGCACCGCCGCCGGAGTCACCTAGTGCAG”, the binding signal is reported as 8200 fluorescence intensity (a.u.).
“TGATGTGGATTTCTTTTACTCTCGTGTTCTAGTAGTTGTCCGGAGTCACCTAGTGCAG” was tested, and the binding signal was 8720 fluorescence intensity (a.u.).
In the case of “ACCCTCTATCTCGTCCCATACGTCTCTGACCGCCGTACCCCGGAGTCACCTAGTGCAG”, the binding signal is reported as 8730 fluorescence intensity (a.u.).
For “GTTGGATTGGCACCTTCTACCGACCGTGCACGTTCATCATCGGAGTCACCTAGTGCAG”, the binding signal was 8510 fluorescence intensity (a.u.).
“GCAATCCGTCGGAATATCTCTCCCCGATCTCCTCTTCTTCCGGAGTCACCTAGTGCAG” was tested, and the binding signal was 8600 fluorescence intensity (a.u.).
“GCCATAGCCGTTGCTCTTGTACTATATAGCCCACCCGTTTCGGAGTCACCTAGTGCAG” was tested, and the binding signal was 8820 fluorescence intensity (a.u.).
“CCGCCCGACCACTATTCGTAGCCTCGTCGTAGTCAACACCCGGAGTCACCTAGTGCAG” was tested, and the binding signal was 9480 fluorescence intensity (a.u.).
With “CCTCCCCAACCACCCGCTGTGTCATCTGCGACCTCAATTTCGGAGTCACCTAGTGCAG” the binding signal was 9880 fluorescence intensity (a.u.).
In the case of “TGTTTCTTGATGTCTTCTTTCCAGGTGATTCGTGTTTCTTCGGAGTCACCTAGTGCAG”, the binding signal is reported as 10500 fluorescence intensity (a.u.).
With “CCTCGCCCTCACCGTCTCCACCCGCCGCGCCGCGTCCCGGCGGAGTCACCTAGTGCAG” the binding signal was 12200 fluorescence intensity (a.u.).
In the case of “ACAGGAGAGTGATTACTTTTGCATTATTAATTGATGTTGTCGGAGTCACCTAGTGCAG”, the binding signal is reported as 8400 fluorescence intensity (a.u.).
For “GTTGTCTGAATTTTTGTTCCGCACTTGGTGCCATCTAGTCCGGAGTCACCTAGTGCAG”, the binding signal was 8120 fluorescence intensity (a.u.).
For “CTCTCTCTCTCTCCGGCCTCCGGCTTCGCCTTCACGACGCCGGAGTCACCTAGTGCAG”, the binding signal was 10800 fluorescence intensity (a.u.).
For “CCACTCCATGTCCATGGCACTGCATCAAACCCTTCTCCTCCGGAGTCACCTAGTGCAG”, the binding signal was 10300 fluorescence intensity (a.u.).
“CACGCATGTTTGCTTTGTCTTCTTACTTTGCACCTATCGCCGGAGTCACCTAGTGCAG” was tested, and the binding signal was 9200 fluorescence intensity (a.u.).
With “TATGGGTTCTCACTTTAGCTCCTTGTGCCACCTAAATTAACGGAGTCACCTAGTGCAG” the binding signal was 8130 fluorescence intensity (a.u.).
With “AGCGCCTGCCACCCTGACACGTGTCCATCTGTTCGGACAACGGAGTCACCTAGTGCAG” the binding signal was 8150 fluorescence intensity (a.u.).
With “TCCCCGCCACTACTACAATTCTCTCCTGTGCTGCTGCCCTCGGAGTCACCTAGTGCAG” the binding signal was 11000 fluorescence intensity (a.u.).
With “ACCGTTAACTTTTTAGCATATGTTTGACTGTTCATCTTATCGGAGTCACCTAGTGCAG” the binding signal was 11200 fluorescence intensity (a.u.).
For “CATTCCATTCCTTCTCCCTGTGCTCGGATTCCTGTTCTTGCGGAGTCACCTAGTGCAG”, the binding signal was 8160 fluorescence intensity (a.u.).
For “TCAGTTCGGCTCGCGGCTCGTCGTCTCCTTCGTCCTCCACCGGAGTCACCTAGTGCAG”, the binding signal was 9920 fluorescence intensity (a.u.).
In the case of “CCACCCCGGCCGCCTCACCGCCGCGCCGTCCTCCTGCACGCGGAGTCACCTAGTGCAG”, the binding signal is reported as 11800 fluorescence intensity (a.u.).
With “ACGACGCCCACGCACATCATCCCTCCGCGCAAAAGCCTATCGGAGTCACCTAGTGCAG” the binding signal was 8910 fluorescence intensity (a.u.).
In the case of “CGATTGCTGACTAGGATTGTTGACCTCACTTTTTTTTGTCCGGAGTCACCTAGTGCAG”, the binding signal is reported as 9800 fluorescence intensity (a.u.).
For “CTTTTCCTGTTGCTCTATCGGTAGCTCCAATTTTCTCTTTCGGAGTCACCTAGTGCAG”, the binding signal was 10500 fluorescence intensity (a.u.).
